# PubChem BioAssay AID1508597, Cure First – 2020
# Purpose: 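Genes whose silencing sensitises or protects ovarian cancer cells against rucaparib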 (primary screen)
# System: human ovarian carcinoma lines grown from tumours: OCI-P5x (papillary serous) and OCI-C5x (clear cell)
# Reagents: siRNA pool against human genes, 1.25 pmol siRNA per well
# Timing: 72 h or 96 h, depending on the cell culture
# Challenge: rucaparib 20 µM (about IC30) or vehicle, present until read-out
# Rucaparib or vehicle: Vehicle
# Cell line: OCI-C5x (clear cell)
# Measurement: 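Luminescent ATP-based viability assay read 72 or 96 h after transfection, depending on culture, given as normalised percent viability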
# Direction: viability, normalised: higher = more viable cells remaining
# Hit rule: 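Active when normalised viability falls below 80 percent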
# Calls: active = viability under 80%; inactive = viability 80% or more
# Shown is a random part of the about 2,100 reagents, in one setting of the screen. 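Calls flag viability under 80% in either arm, not effects specific to rucaparib; the reference for percent is not stated.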 A number with no mark means an inactive call. Some reagents were tested in more than one well and are listed for each. Not given: the 100% reference.
gene,technical replicate,"viability, normalised (%)"
TSPYL4,1,41.7 (active)
TSPYL4,2,42.5 (active)
TSPYL4,3,47 (active)
EIF4A2,1,49.1 (active)
EIF4A2,2,42.1 (active)
EIF4A2,3,50 (active)
DDX41,1,20.4 (active)
DDX41,2,27.9 (active)
DDX41,3,33.7 (active)
UBN1,1,27.8 (active)
UBN1,2,32.1 (active)
UBN1,3,43.7 (active)
LYN,1,46.6 (active)
LYN,2,67.9 (active)
LYN,3,51.9 (active)
KPNA4,1,120
KPNA4,2,66.4 (active)
KPNA4,3,58.9 (active)
TGFB1,1,56.1 (active)
TGFB1,2,80
TGFB1,3,51.6 (active)
CDH4,1,81.2
CDH4,2,78.8 (active)
CDH4,3,79.6 (active)
DNMT3B,1,38.6 (active)
DNMT3B,2,53.8 (active)
DNMT3B,3,38.8 (active)
PDE6D,1,47.3 (active)
PDE6D,2,52.5 (active)
PDE6D,3,41.3 (active)
CDK13,1,64.1 (active)
CDK13,2,50 (active)
CDK13,3,56.4 (active)
SAFB,1,42 (active)
SAFB,2,45.9 (active)
SAFB,3,53.5 (active)
NECAB3,1,76.1 (active)
NECAB3,2,72.4 (active)
NECAB3,3,63.8 (active)
TPK1,1,40.4 (active)
TPK1,2,38.9 (active)
TPK1,3,43.3 (active)
RAX2,1,64 (active)
RAX2,2,51.5 (active)
RAX2,3,46.5 (active)
WRN,1,61.8 (active)
WRN,1,73.2 (active)
WRN,2,53.6 (active)
WRN,2,78.7 (active)
WRN,3,52.1 (active)
WRN,3,85.8
BCL2L1,1,12.4 (active)
BCL2L1,1,33.4 (active)
BCL2L1,2,34.1 (active)
BCL2L1,2,16.7 (active)
BCL2L1,3,21.8 (active)
BCL2L1,3,31.6 (active)

Copied from the list.
Under “viability, normalised (%)”, LYN, technical replicate 2 shows 67.9 (active)
CDK13, technical replicate 2, viability, normalised (%) → 50 (active)
Result for TSPYL4, technical replicate 1 in “viability, normalised (%)”: 41.7 (active)
NECAB3, technical replicate 3, viability, normalised (%) → 63.8 (active)
RAX2, technical replicate 1, viability, normalised (%): 64 (active)
Entry for TSPYL4, technical replicate 2 under “viability, normalised (%)”: 42.5 (active)
